Laboratory results from PubChem BioAssay AID504834 (National Center for Advancing Translational Sciences (NCATS), 2011).
Out of some 320,000 compounds screened, about 22,000 (6.9%) were called active. Inconclusive means that the source gave no clear call. Such entries were picked first, then a sample of the others. Calls come from the whole dose curve; as a rule, active = well fitted inhibition curve with a large enough effect; inconclusive = small, poorly fitted or top-dose-only effect, or another doubt; inactive = no such curve, though single readings can be large or run the other way. A potency beside an inconclusive call is a rough fit, not a confirmed value.

test: Primary qHTS for delayed death inhibitors of the malarial parasite plastid, 96 hour incubation; conditions: P. falciparum luciferase reporter growth; series mostly up to 28.7 µM
Outline: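 Two-generation exposure (96 h) targets delayed-death phenotype. Reporter parasites carrying integrated firefly luciferase, in red cells at 2% hematocrit and 0.05% parasitemia final, kept at 37 C, 5% CO2; luminescence loss indicates inhibition.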
Potency is the fitted concentration of half-maximal effect.

SMILES	Potency
O=C(Nc1ccc2nccnc2c1)c1cnccn1	inconclusive: 18.5 µM [inhibitor, single point]
O=C(O)CCCCN1C(=O)/C(=C\c2ccc(OCc3ccccc3)c(OCc3ccccc3)c2)SC1=S	inconclusive: 0.0047 µM [inhibitor, full curve, poor fit]
O=C(O)c1ccc2c(c1)C1C=CCC1C(c1cc3c(cc1Br)OCO3)N2 (configuration not stated)	inconclusive: 8.28 µM [inhibitor, partial curve, poor fit]
COc1ccc(C2CC(c3ccccc3)=NN2C(=O)CN2N=NC3C(=O)N(c4cccc(F)c4)C(=O)C32)cc1 (configuration not stated)	inconclusive: 18.5 µM [inhibitor, single point]
COc1ccc(S(=O)(=O)N2CCN(C(=O)Nc3ccccc3OC)CC2)cc1	inactive
Cc1ccc(-c2cc(-c3c(C)nn(C)c(=O)c3N)[nH]n2)cc1	inconclusive: 11.7 µM [inhibitor, single point]
COc1ccccc1Nc1nnc(Cc2ccccc2)c(=O)[nH]1	active: 11.7 µM
COCCn1c(SCC(=O)Nc2sc(C)c(C)c2C#N)nnc1C(C)C	inconclusive: 20.8 µM [inhibitor, single point]
CCC1(C)OC(=O)N(CCCn2ccnc2C)C1(C)O (configuration not stated)	inconclusive: 7.38 µM [inhibitor, partial curve, poor fit]
O=[N+]([O-])c1cccc(/C=N/Nc2nc(N3CCCCC3)nc(N3CCCCC3)n2)c1	inactive
CCN(Cc1ccccc1)C(=O)C1CCN(C(=O)Nc2ccccc2)CC1	inconclusive: 5.22 µM [inhibitor, partial curve, poor fit]
CCc1nc(Nc2ccc(NC(C)=O)cc2)c2oc3ccccc3c2n1	inactive
O=c1cc(CCl)nc2sc3ccccc3n12	inactive
O=C(CN1CCN(Cc2ccc(Cl)cc2)CC1)N/N=C/c1cccc(F)c1	inactive
NC(=O)c1nc(-c2ccco2)nc2c1[nH]c(=O)n2-c1ccc(Cl)c(Cl)c1	inactive
CC1CCCCN1S(=O)(=O)CCNC(=O)c1ccccc1 (configuration not stated)	inactive
CN1C2CCC1CC(NC(=O)c1cc(Cl)cc3[nH]cnc13)C2 (configuration not stated)	inconclusive: 18.5 µM [inhibitor, single point]
O=C(c1ccco1)N1CCN(Cc2ccc(F)cc2)CC1	inactive
COc1ccccc1Nc1nc(-c2sc(N)nc2C)cs1	inconclusive: 11.7 µM [inhibitor, single point]
CN1CCN(S(=O)(=O)c2cccc(C(=O)Nc3cc(Cl)ccc3N3CCOCC3)c2)CC1	inconclusive: 7.38 µM [inhibitor, partial curve]
Clc1ccc2nc3c4ccccc4cnn3c2c1	inconclusive: 14.7 µM [inhibitor, single point]
N/C(Cc1ccc([N+](=O)[O-])cc1)=N\OC(=O)c1ccccc1F	inactive
Cc1ccc(/C=C2/Sc3ccc(C(=O)N4CCC5(CC4)OCCO5)cc3NC2=O)cc1	inconclusive: 18.5 µM [inhibitor, single point]
C/C=C/c1ccc(OCC(O)CNCCc2ccc(OC)cc2)c(OC)c1 (configuration not stated)	inconclusive: 11.7 µM [inhibitor, partial curve, poor fit]
CCOC(=O)C1(Cc2cccc(Cl)c2)CCCN(C(=O)C2CC2)C1 (configuration not stated)	inactive
COc1ccc(NS(=O)(=O)c2ccc(N3CCCC3)c(NC(=S)Nc3cccc(C)c3C)c2)cc1	inconclusive: 11.7 µM [inhibitor, partial curve, poor fit]

Three neighbouring compounds out of the list so far:
SMILES	Potency
O=C(O)c1ccc2c(c1)C1C=CCC1C(c1cc3c(cc1Br)OCO3)N2 (configuration not stated)	inconclusive: 8.28 µM [inhibitor, partial curve, poor fit]
COc1ccc(C2CC(c3ccccc3)=NN2C(=O)CN2N=NC3C(=O)N(c4cccc(F)c4)C(=O)C32)cc1 (configuration not stated)	inconclusive: 18.5 µM [inhibitor, single point]
COc1ccc(S(=O)(=O)N2CCN(C(=O)Nc3ccccc3OC)CC2)cc1	inactive

(more compounds)

SMILES	Potency
CC(C)N(Cc1ccccc1)C(=O)CN1C(=O)NC2(CCCc3ccccc32)C1=O (configuration not stated)	inactive
CCOc1cccc(C(=O)N2CCCN(C)CC2)c1	inconclusive: 13.1 µM [inhibitor, single point]
O=C(C(Cc1ccccc1)n1cccc1)N1CCc2ccccc21 (configuration not stated)	inconclusive: 13.1 µM [inhibitor, single point]
O=C(N/N=C/c1coc2ccccc2c1=O)c1cn(-c2ccccc2)nc1-c1ccccc1	inactive
CCCCC(NC(=O)CCc1c(C)c2cc3c4c(oc3c(C)c2oc1=O)CCCC4)C(=O)O (configuration not stated)	inactive
CC(=O)Nc1cccc2c1C(=O)N(c1ccc(OC(C)=O)cc1)C2=O	active: 2.62 µM
O=C(NNc1cc(Cl)ccc1Cl)c1cccs1	inconclusive: 0.185 µM [inhibitor, partial curve, poor fit]
CSc1ccc(C(=O)C2CCCN(C(=O)c3cc(C)n(C)n3)C2)cc1 (configuration not stated)	inconclusive: 11.7 µM [inhibitor, single point]
Cc1ccc(S(=O)(=O)N2CCN(C(=O)CCOc3cc(C)ccc3C)CC2)cc1	inconclusive: 10.4 µM [inhibitor, single point]
Cc1ccc(NC(=O)CN2C(=O)NC(Cc3c[nH]c4ccccc34)C2=O)cc1 (configuration not stated)	inconclusive: 18.5 µM [inhibitor, single point]
C/C(=C1/SC(N2CCCC2)=NC1=O)c1ccc(Br)cc1	inactive
Cc1ccc(Cn2ccsc2=NC(=O)COC(=O)c2ccc(NC(=O)CC#N)cc2)cc1	active: 10.4 µM
CCOc1ccc(NC(=O)CC(C)O)cc1 (configuration not stated)	inactive
O=C1NCCc2c1[nH]c1c(Cl)ccc(Cl)c21	inactive
COc1ccc(C2=NO[C@H]3C[C@](C(=O)NC(C)C)(S(=O)(=O)c4ccccc4)C[C@@H]23)cc1	inactive
CSc1ccccc1NC(=S)Nc1cc(C)cc(C)c1	inconclusive: 16.5 µM [inhibitor, single point]
CSc1nnc(C2CCCN(CC(=O)Nc3ccccc3N3CCOCC3)C2)n1C(C)C (configuration not stated)	inactive
Fc1ccc(CNCCc2ccc3c(c2)OCO3)cc1	inactive
O=C(Nc1cccc(S(=O)(=O)N2CCOCC2)c1)c1cnn2c(C(F)F)cc(-c3ccccc3)nc12	inactive
C=CCNc1nnc(SCC(=O)N2CCC(C(N)=O)CC2)s1	inconclusive: 1.17 µM [inhibitor, partial curve]
CCN1C(=O)c2cccc3c(S(=O)(=O)Nc4ccccc4)ccc1c23	inconclusive: 2.62 µM [inhibitor, partial curve, poor fit]
COc1cc(S(=O)(=O)N2CCOCC2)ccc1NC(=O)COC(=O)COc1ccccc1	inactive
Cc1ccc(C(=O)c2cc3ccccc3o2)cc1C	inactive
COc1ccc(C2=NS(=O)(=O)N(C)C(C(=O)NCc3cccs3)=C2)cc1OC	inactive
COc1ccc(S(=O)(=O)NC2CC(=O)N(c3ccc4c(c3)OCCO4)C2)cc1 (configuration not stated)	inactive
O=C1N/C(=N/Nc2ccccc2)S/C1=C\c1ccccc1	inconclusive: 10.4 µM [inhibitor, single point]

SMILES	Potency
CCCn1nc(C(=O)NCC2COc3ccccc3O2)c2ccccc2c1=O (configuration not stated)	inconclusive: 11.7 µM [inhibitor, single point]
c1cn(CC2(Cn3ccnc3)COC2)cn1	inconclusive: 16.5 µM [inhibitor, partial curve, poor fit]
CC(C)CNC(=O)Nc1ccc(F)c(Cl)c1	inconclusive: 1.31 µM [inhibitor, full curve]
COc1ccc2nc(N=Nc3c(O)ccc4ccccc34)sc2c1	inactive
CN(c1ccc(OCC(=O)Nc2nc3ccccc3s2)cc1)S(=O)(=O)c1ccccc1	active: 5.22 µM
Cc1cc(-n2c(C)cc(C(=O)CCl)c2C)no1	inconclusive: 14.7 µM [inhibitor, single point]
CCCC(=O)Nc1ccc2c(c1)C(=O)NC2=O	inactive
CC(C)CCNC(=O)C1CCN(C(=O)N(C)C)CC1	inconclusive: 7.38 µM [inhibitor, partial curve]
CN(C)c1ccc(NC(=S)NC23CC4CC(CC(C4)C2)C3)cc1	active: 0.586 µM
COC(=O)c1ccc(N2CCOCC2)c(F)c1	inactive
CC(=O)OCC1=C(C(=O)O)N2C(=O)[C@@H](NC(=O)Cc3cccs3)[C@H]2SC1	inactive
CNS(=O)(=O)c1cc(NC(=O)CCNC(=O)c2ccco2)ccc1C	inactive
CC(C)(C)OC(=O)N[C@@H](CCCCNC(=O)OCc1ccccc1)c1nnc([C@H](CCCCNC(=O)OCc2ccccc2)NC(=O)OC(C)(C)C)o1	active: 2.62 µM
CCOC(=O)C1CCN(C(=O)CCC2CCCC2)CC1	inactive
CCC(=O)N(Cc1cc(=O)[nH]c2ccccc12)c1ccccc1C	inconclusive: 10.4 µM [inhibitor, partial curve]
CC1=C(C(=O)NC(C)CCc2ccccc2)C2(CCC(C)CC2)OC1=O (configuration not stated)	inconclusive: 11.7 µM [inhibitor, partial curve, poor fit]
Cc1[nH]c2ccccc2c(=O)c1CN(C)Cc1ccccc1	inconclusive: 14.7 µM [inhibitor, single point]
Cc1ccc(OCc2cc(C(=O)N3CCC(C(O)C(C)C)CC3)no2)cc1C (configuration not stated)	inconclusive: 14.7 µM [inhibitor, single point]
O=C(CNC(=O)c1ccc(Br)o1)NCC(=O)OCc1ccccc1	inactive
COc1cc(CNCc2ccncc2)cc(OC)c1OC	inactive
COc1ccc(-c2nnc(SCC(=O)OC3CCCCC3)o2)cc1OC	inconclusive: 11.7 µM [inhibitor, single point]
CC1(C)Cc2c(c(=S)nc(-c3ccccc3)n2CCOCCO)CO1	inactive
Cc1nc(N2CCN(C)CC2)c2c(C)c(C(=O)Nc3ccc(C)c(F)c3)sc2n1	inconclusive: 10.4 µM [inhibitor, single point]
CCOc1ccc(C2=CC(=O)C[C@H](c3ccc(OC)cc3)C2)cc1	inactive
Cc1ccc(C(=O)Nc2ccccc2C(=O)NC2CCCCC2)cc1S(=O)(=O)N1CCOCC1	inconclusive: 1.04 µM [inhibitor, full curve]
